PubChem BioAssay AID1508597 | Cure First, 2020

Screen: 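Survival screen with siRNA in ovarian cancer cells derived from patients, with or without rucaparib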 (primary screen)
Cells: human ovarian carcinoma lines grown from tumours: OCI-P5x (papillary serous) and OCI-C5x (clear cell)
Reagent: siRNA pool against human genes, 1.25 pmol siRNA per well
Time to read-out: 72 h or 96 h, depending on the cell culture
Challenge: rucaparib 20 µM (about IC30) or vehicle, present until read-out
Rucaparib or vehicle: Vehicle
Cell line: OCI-C5x (clear cell)
Measurement: 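Luminescent ATP-based viability assay read 72 or 96 h after transfection, depending on culture, given as normalised percent viability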
Reading the numbers: viability, normalised: higher = more viable cells remaining
Hit rule: 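Active when normalised viability falls below 80 percent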
Calls: active = viability under 80%; inactive = viability 80% or more
This is an unselected part of the about 2,100 reagents, under one of the conditions tested. 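Calls flag viability under 80% in either arm, not effects specific to rucaparib; the reference for percent is not stated.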 A number with no mark means an inactive call. A reagent listed more than once was tested more than once; the source does not tell the runs apart. Reagent sequences are not shown. Not given: the 100% reference.

SLIT2 (slit guidance ligand 2), technical replicate 1 scored viability, normalised (%) = 30.3 (active).
SLIT2 (slit guidance ligand 2), technical replicate 2 gave viability, normalised (%) = 40.8 (active).
SLIT2 (slit guidance ligand 2), technical replicate 3 showed viability, normalised (%) = 28.9 (active).
For FANCM (FA complementation group M), technical replicate 1, the values are viability, normalised (%) = 48 (active).
FANCM (FA complementation group M), technical replicate 1 gave viability, normalised (%) = 43.9 (active).
FANCM (FA complementation group M), technical replicate 2 scored viability, normalised (%) = 51 (active).
FANCM (FA complementation group M), technical replicate 2 scored viability, normalised (%) = 41 (active).
FANCM (FA complementation group M), technical replicate 3 showed viability, normalised (%) = 36.9 (active).
With FANCM (FA complementation group M), technical replicate 3, the values are viability, normalised (%) = 37.6 (active).
For MCM2 (minichromosome maintenance complex component 2), technical replicate 1 the deposit lists viability, normalised (%) = 52 (active).
With MCM2 (minichromosome maintenance complex component 2), technical replicate 2 the deposit lists viability, normalised (%) = 55.5 (active).
With MCM2 (minichromosome maintenance complex component 2), technical replicate 3, the values are viability, normalised (%) = 49.9 (active).
